Experimental data reported in ChEMBL document CHEMBL3868603, “Synthesis and evaluation of naphthyl bearing 1,2,3-triazole analogs as antiplasmodial agents, cytotoxicity and docking studies” (Bioorg Med Chem, 2017).

Assay: Cytotoxicity against HEK293 cells assessed as decrease in cell viability after 48 hrs by MTT assay
Assay type: toxicity, cell-based
Conditions: human
Outline: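 HEK-293 in MEM with 10% FBS, seeded 10,000 cells/well, 24 h at 37°C, 5% CO2; treated 1–100 µM in triplicate with DMSO control and doxorubicin reference, 48 h. MTT added 1 h, dried, DMSO dissolved, absorbance 562 nm; IC50 as 50% absorbance reduction versus control, mean ± SD of three independent experiments.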

Work on COc1cccc2c1C(=O)c1c(O)c3c(c(O)c1C2=O)C[C@@](O)(C(=O)CO)C[C@@H]3O[C@H]1C[C@H](N)[C@H](O)[C@H](C)O1 [DOXORUBICIN] yielded an IC50 at 48 h of 3.13 µM.
